Laboratory results taken from publication PMC7052886.
Results are given in words; binding and its absence hold for the method and conditions named. In cells and extracts the contact can be indirect. Some binding calls cover weakened binding; strength is not graded here. For some assays here: Where a sequence is shown, tags or fusion partners need not be part of it.

Chains of the proteins cited; added tags and fusions are not shown.
UniProt Q9NQU5: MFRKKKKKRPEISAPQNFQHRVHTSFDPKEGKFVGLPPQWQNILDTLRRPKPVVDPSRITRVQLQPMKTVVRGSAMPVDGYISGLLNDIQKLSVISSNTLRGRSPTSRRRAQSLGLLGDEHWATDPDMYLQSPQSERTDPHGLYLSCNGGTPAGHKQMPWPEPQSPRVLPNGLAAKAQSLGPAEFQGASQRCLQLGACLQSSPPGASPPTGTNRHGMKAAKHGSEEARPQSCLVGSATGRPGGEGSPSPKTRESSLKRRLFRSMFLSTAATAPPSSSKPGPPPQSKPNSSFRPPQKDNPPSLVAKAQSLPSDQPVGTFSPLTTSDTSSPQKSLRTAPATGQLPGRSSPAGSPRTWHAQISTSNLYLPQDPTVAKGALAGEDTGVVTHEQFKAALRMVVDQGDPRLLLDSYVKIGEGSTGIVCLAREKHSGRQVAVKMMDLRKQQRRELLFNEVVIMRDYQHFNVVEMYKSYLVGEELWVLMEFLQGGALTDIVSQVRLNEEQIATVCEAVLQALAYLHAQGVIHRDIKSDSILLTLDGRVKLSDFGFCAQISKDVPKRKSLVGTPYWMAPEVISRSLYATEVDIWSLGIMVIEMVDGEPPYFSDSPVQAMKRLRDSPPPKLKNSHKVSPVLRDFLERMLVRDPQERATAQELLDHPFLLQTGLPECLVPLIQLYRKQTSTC

T1: endogenous SIRT4 (human (endogenous in CWR22RV1)) (UniProt Q9Y6E7)
T1 sequence: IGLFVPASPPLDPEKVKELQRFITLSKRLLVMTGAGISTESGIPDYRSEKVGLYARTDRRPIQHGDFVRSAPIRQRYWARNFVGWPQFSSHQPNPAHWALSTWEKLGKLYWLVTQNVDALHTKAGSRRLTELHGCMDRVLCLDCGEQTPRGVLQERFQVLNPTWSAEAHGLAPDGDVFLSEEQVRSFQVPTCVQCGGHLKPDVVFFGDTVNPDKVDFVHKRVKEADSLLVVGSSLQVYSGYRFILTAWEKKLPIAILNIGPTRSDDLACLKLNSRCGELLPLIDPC


What was measured:
[1] = target: T1, endogenous SIRT4 (human (endogenous in CWR22RV1)); experiment: co-IP; endogenous proteins in CWR22RV1 cells; 2 mg lysate, indicated antibody and protein A-Sepharose overnight at 4°C; western blot
[2] = target: GFP-PAK6 (p21-activated kinase 6, wild type) (UniProt Q9NQU5); experiment: co-IP; HEK293 cells transiently co-transfected with the tagged constructs; 2 mg lysate, indicated antibody and protein A-Sepharose overnight at 4°C; western blot

| binding [1] | binding [2] | Molecule |
| --- | --- | --- |
| binds | – | endogenous PAK6 (p21-activated kinase 6) (from UniProt Q9NQU5 1-681) |
| – | binds | Flag-tagged SIRT4 (protein, UniProt Q9Y6E7 29-314) IGLFVPASPPLDPEKVKELQRFITLSKRLLVMTGAGISTESGIPDYRSEKVGLYARTDRRPIQHGDFVRSAPIRQRYWARNFVGWPQFSSHQPNPAHWALSTWEKLGKLYWLVTQNVDALHTKAGSRRLTELHGCMDRVLCLDCGEQTPRGVLQERFQVLNPTWSAEAHGLAPDGDVFLSEEQVRSFQVPTCVQCGGHLKPDVVFFGDTVNPDKVDFVHKRVKEADSLLVVGSSLQVYSGYRFILTAWEKKLPIAILNIGPTRSDDLACLKLNSRCGELLPLIDPC |
